For 2 molecules, binding results are on record in paper PMC11957393.

Results are given in words; binding and its absence hold for the method and conditions named. For part of these data: Binding seen in cells or lysates may run through a third protein. Some binding calls cover weakened binding; strength is not graded here. For part of these data: Where a sequence is shown, tags or fusion partners need not be part of it.

Assay [1] deals with chicken MyD88, Flag-tagged (Flag-MyD88), expressed in HD11 cells (chicken) (UniProt A5HNF6). Put plainly: co-IP; HD11 cells co-transfected with Flag-MyD88, HA-MyD88 (1.5 ug each) and increasing doses of Myc-VP2 (0, 0.7, 1.5 ug) for 24 h; immunoprecipitated by the Flag tag, blotted for HA, Flag and Myc tags.
In assay [2] the target is endogenous MyD88 of HD11 chicken macrophage cells (chicken (endogenous in HD11)) (UniProt A5HNF6). Description: native gel or EMSA; HD11 lysates (native lysis buffer) after HA-VP2 transfection, vvIBDV or HT infection or LPS; native PAGE and immunoblot with anti-MyD88. Background: A gel shift assay detects complexes by their altered migration in electrophoresis.
For assay [3] the target is unchanged. Put plainly: co-IP; HD11 cells infected with vvIBDV (1x10^10 copies/1x10^6 cells) for 24 h; lysates immunoprecipitated and blotted with anti-MyD88 antibody.

B1: chicken MyD88, Flag-tagged (Flag-MyD88), expressed in HD11 cells (protein, UniProt A5HNF6 1-299)
chain: MATVPVGAGSAPGPEPADLHSVPMVALNYGVRRRLGLYLNPRAATAADWTALAEKLGHDYLEIRRLEALPDPTAALLEEWQSRCPGGATVGQLLELLRQLGRHDVLLELGGSVEEDCKKYLRRKQQEAEQPLQVPAVDSSVPKTSELMGITTRDDPYGHGTEMFDAFICYCQKDLQFVQEMIRELEQTEFKLKLCVFDRDVLPGTCVWSISGELIERRCRRMVVVISDDYLESDECDFQTKFALSLSPGARLKRLIPVKCKTMKNEFPSILRFITICDYTNPCTKKWFWTRLAKSLLLP
For B1, the binding entry in assay [1] is “binds”.

B2: endogenous MyD88 of HD11 chicken macrophage cells (protein, UniProt A5HNF6 1-299)
chain: B1 chain
Turning to B2, the binding result in assay [2] and in assay [3] was “binds” each time.
